Measured data: PubChem BioAssay AID1671195 (Yale University, 2021)

Purpose: 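Regulators of LDL receptor activity judged by labelled LDL uptake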 (primary screen)
System: human Huh7 hepatoma cells
Knock-down reagent: siRNA pool against human genes, 18 nM
Time to read-out: about 2 to 2.5 days of knockdown, then 8 h LDL uptake
Treatment: DiI-labelled LDL at 30 µg/ml for 8 h, in lipoprotein-deficient serum medium
Measured: 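Fluorescent LDL signal imaged in cells, scaled to the plate median, robust z-score for each replicate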
Scale: robust z-score: higher = more LDL uptake after knockdown
Rule for the call: 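a gene counts as active if at least two replicate z-scores exceed ±2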
In all, the deposit lists about 22,000 reagents; this is a part drawn at random. About 1,510 of all reagents (6.9%) were called active. 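Active includes knockdowns raising or lowering LDL uptake; positive z-scores mean more uptake, negative mean less.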 A number with no mark means an inactive call.

Target gene | robust z-score, replicate 1 | robust z-score, replicate 2 | robust z-score, replicate 3
CSN3 (casein kappa) | 1.45 | 1.73 | 1.31
GLUD1P4 (glutamate dehydrogenase 1 pseudogene 4) | -0.933 | -1.05 | -0.942
MYL5 (myosin light chain 5) | 1.51 | 2.22 | 0.113
PTPDC1 (protein tyrosine phosphatase domain containing 1) | -1.72 | -1.88 | -1.77
FLJ42393 | -1.5 | -1.45 | -1.41
TLCD3B (TLC domain containing 3B) | 0.433 | 1.26 | 0.794
CCT2 (chaperonin containing TCP1 subunit 2) | 0.351 | 0.255 | 0.759
INPP5E (inositol polyphosphate-5-phosphatase E) | -1.09 | -0.454 | -0.669
PLA2G10 (phospholipase A2 group X) | 1.73 | 1.94 | 1.28
TRAF3 (TNF receptor associated factor 3) | 0.271 | -1.06 | -0.924
AADAC (arylacetamide deacetylase) | 1.75 | 3.13 | 1.47
KRTAP4-4 (keratin associated protein 4-4) | 0.372 | -0.227 | 0.0319
LRRC75B (leucine rich repeat containing 75B) | -0.423 | -0.739 | -0.64
GCC2 (GRIP and coiled-coil domain containing 2) | 0.215 | 0.588 | -0.259
ATP11AUN (ATP11A upstream neighbor lncRNA) | 0.371 | 0.903 | 0.196
DNAI2 (dynein axonemal intermediate chain 2) | -0.408 | -0.868 | -1.04
QARS1 (glutaminyl-tRNA synthetase 1) | -0.476 | 0.96 | 1.25
MINDY2 (MINDY lysine 48 deubiquitinase 2) | 0.828 | 0.732 | 1.48
FES (FES proto-oncogene, tyrosine kinase) | -0.483 | -1.16 | -1.52
DHFR (dihydrofolate reductase) | -0.624 | -0.499 | -0.86
PTPRJ (protein tyrosine phosphatase receptor type J) | -0.0937 | 0.237 | 0.497
SLC25A2 | -0.593 | -0.418 | -0.681
FRMD8 (FERM domain containing 8) | 0.165 | 0.181 | -0.768
ZNF383 (zinc finger protein 383) | -0.378 | -0.489 | -0.837
HOOK2 (hook microtubule tethering protein 2) | 0.545 | 0.0432 | 0.468
RPA1 (replication protein A1) | 3.52 (active) | 1.97 | 3.54
MRI1 (methylthioribose-1-phosphate isomerase 1) | 1.75 | 0.89 | 0.841
CAAP1 (caspase activity and apoptosis inhibitor 1) | 0.757 | -0.152 | -0.15
RAG2 (recombination activating 2) | 1.2 | 0.258 | 1.03
UGT1A6 (UDP glucuronosyltransferase family 1 member A6) | 0.647 | 1.19 | 1.24
HS3ST2 (heparan sulfate-glucosamine 3-sulfotransferase 2) | 0.483 (active) | -2.59 | -2.01
LOC441055 (retired record) | -0.412 | -0.857 | -0.725
RPL6P1 (ribosomal protein L6 pseudogene 1) | 0.468 | 0.966 | 0.892
GABRG1 (gamma-aminobutyric acid type A receptor subunit gamma1) | -0.87 | -1.26 | -1.63
PIP4K2B (phosphatidylinositol-5-phosphate 4-kinase type 2 beta) | 0.0274 | 1.19 | -0.318
SCO1 (synthesis of cytochrome C oxidase 1) | -1.12 | -1.36 | -1.15
SULT1B1 (sulfotransferase family 1B member 1) | 0.738 | 0.799 | 1.53
PHLDB3 (pleckstrin homology like domain family B member 3) | -1.44 | -1.22 | -1.21
LOC400781 (retired record) | 0.619 | 0.537 | 0.539
SCML2 (Scm polycomb group protein like 2) | -1.45 | -1.44 | 0.21
CSNK1D (casein kinase 1 delta) | -0.479 | 1.28 | -0.207
STK38 (serine/threonine kinase 38) | -0.688 | -1.3 | -0.536
BCL6 (BCL6 transcription repressor) | -0.788 | -0.63 | -0.471
NUDT4 (nudix hydrolase 4) | 0.0515 | 0.518 | 0.335
H2AC11 (H2A clustered histone 11) | 1.42 | 0.134 | 0.0446
CD80 (CD80 molecule) | 0.108 | -1.31 | -0.104
EEF1A1P35 | 1.78 | 2.1 | 1.13
SCAMP2 | -0.946 | -1.6 | -1.93
ASB16-AS1 (ASB16 antisense RNA 1) | -0.816 | -0.356 | -0.756
TAF6 (TATA-box binding protein associated factor 6) | -0.618 | -0.477 | -0.165
LOC200624 (retired record) | 0.718 | 0.0379 | 0.681
H2BC4 (H2B clustered histone 4) | 0.554 | 0.647 | 1.59
EEF1A2 (eukaryotic translation elongation factor 1 alpha 2) | -0.6 | -0.6 | -0.508
FAM149A (family with sequence similarity 149 member A) | -0.366 | 0.405 | -1.03
TRPS1 (transcriptional repressor GATA binding 1) | -0.349 | 0.222 | -0.62
FEZ2 (fasciculation and elongation protein zeta 2) | 0.436 | 0.291 | 2.31
BRF1 (BRF1 general transcription factor IIIB subunit) | 0.22 | 0.238 | 0.143
LOC401700 (retired record) | -0.725 | -2.94 | -1.06
LRRCC1 (leucine rich repeat and coiled-coil centrosomal protein 1) | 3.46 (active) | 2.91 | 3.64
CCDC124 (coiled-coil domain containing 124) | -0.655 | -1.4 | -1.36
NHLRC3 (NHL repeat containing 3) | -0.678 | -1.15 | -0.549
LOC388282 | 0.65 | 0.675 | 0.527
MUC13 (mucin 13, cell surface associated) | -0.919 | 0.574 | 1.06
PEX5 (peroxisomal biogenesis factor 5) | -1.75 | -1.5 | -2.04
LOC441624 (retired record) | -0.73 | -0.565 | -0.765
RICTOR (RPTOR independent companion of MTOR complex 2) | 0.245 | 0.334 | 0.367
LMX1B (LIM homeobox transcription factor 1 beta) | -1.56 | -1.58 | -1.54
LOC441345 (retired record) | 0.867 | 0.16 | -0.014
